Paper PMC9885601
These are yes or no findings as the source states them, for the method shown. In cells and extracts the contact can be indirect. Some results given as binding are weak or reduced against the parent protein; the word gives no strength.

The chains behind the UniProt entries cited, without tags or fusion partners. Where a name states a change or a piece, a line headed by the entry shows the natural chain unless it says otherwise. Residues count along the entry.
UniProt P05556: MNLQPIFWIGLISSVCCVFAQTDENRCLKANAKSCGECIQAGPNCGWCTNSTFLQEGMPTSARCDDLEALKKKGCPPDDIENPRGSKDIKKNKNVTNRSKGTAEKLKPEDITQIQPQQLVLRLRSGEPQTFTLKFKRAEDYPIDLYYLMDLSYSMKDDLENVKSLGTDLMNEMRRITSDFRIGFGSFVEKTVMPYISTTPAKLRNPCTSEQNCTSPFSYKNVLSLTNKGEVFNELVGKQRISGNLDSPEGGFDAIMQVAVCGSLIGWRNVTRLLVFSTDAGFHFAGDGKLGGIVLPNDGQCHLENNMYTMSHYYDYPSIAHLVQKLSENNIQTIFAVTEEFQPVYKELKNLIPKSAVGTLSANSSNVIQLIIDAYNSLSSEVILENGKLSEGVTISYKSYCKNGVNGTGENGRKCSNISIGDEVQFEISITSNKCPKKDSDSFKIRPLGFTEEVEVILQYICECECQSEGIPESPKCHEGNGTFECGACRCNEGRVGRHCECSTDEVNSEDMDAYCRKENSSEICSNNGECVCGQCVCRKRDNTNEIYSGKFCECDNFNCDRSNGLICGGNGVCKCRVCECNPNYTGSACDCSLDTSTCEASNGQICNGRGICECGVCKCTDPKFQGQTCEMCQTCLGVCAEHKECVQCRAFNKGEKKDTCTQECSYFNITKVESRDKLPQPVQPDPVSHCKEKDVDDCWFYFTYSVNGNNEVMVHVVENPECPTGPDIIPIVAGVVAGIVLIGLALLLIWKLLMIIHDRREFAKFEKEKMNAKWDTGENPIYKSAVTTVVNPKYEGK
UniProt P09055, residues 21-798: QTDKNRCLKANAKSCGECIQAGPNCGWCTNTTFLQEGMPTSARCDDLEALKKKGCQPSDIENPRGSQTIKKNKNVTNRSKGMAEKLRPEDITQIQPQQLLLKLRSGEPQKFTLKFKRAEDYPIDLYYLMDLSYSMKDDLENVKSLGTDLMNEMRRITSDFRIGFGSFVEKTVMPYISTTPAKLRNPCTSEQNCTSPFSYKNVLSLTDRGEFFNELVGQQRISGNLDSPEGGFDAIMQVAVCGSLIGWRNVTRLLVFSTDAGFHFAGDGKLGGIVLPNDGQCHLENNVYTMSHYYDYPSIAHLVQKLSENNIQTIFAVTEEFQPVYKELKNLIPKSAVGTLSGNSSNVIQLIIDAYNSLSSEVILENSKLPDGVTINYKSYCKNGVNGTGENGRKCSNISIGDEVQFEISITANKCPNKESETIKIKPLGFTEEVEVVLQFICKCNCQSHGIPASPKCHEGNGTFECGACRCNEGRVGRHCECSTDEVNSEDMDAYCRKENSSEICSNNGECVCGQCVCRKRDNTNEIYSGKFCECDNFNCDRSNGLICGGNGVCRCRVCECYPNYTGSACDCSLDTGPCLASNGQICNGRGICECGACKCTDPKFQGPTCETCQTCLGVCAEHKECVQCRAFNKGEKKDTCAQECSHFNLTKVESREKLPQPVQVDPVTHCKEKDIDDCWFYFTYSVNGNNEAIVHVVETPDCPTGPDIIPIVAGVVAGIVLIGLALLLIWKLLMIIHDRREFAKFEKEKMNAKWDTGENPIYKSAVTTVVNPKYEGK
UniProt P19838: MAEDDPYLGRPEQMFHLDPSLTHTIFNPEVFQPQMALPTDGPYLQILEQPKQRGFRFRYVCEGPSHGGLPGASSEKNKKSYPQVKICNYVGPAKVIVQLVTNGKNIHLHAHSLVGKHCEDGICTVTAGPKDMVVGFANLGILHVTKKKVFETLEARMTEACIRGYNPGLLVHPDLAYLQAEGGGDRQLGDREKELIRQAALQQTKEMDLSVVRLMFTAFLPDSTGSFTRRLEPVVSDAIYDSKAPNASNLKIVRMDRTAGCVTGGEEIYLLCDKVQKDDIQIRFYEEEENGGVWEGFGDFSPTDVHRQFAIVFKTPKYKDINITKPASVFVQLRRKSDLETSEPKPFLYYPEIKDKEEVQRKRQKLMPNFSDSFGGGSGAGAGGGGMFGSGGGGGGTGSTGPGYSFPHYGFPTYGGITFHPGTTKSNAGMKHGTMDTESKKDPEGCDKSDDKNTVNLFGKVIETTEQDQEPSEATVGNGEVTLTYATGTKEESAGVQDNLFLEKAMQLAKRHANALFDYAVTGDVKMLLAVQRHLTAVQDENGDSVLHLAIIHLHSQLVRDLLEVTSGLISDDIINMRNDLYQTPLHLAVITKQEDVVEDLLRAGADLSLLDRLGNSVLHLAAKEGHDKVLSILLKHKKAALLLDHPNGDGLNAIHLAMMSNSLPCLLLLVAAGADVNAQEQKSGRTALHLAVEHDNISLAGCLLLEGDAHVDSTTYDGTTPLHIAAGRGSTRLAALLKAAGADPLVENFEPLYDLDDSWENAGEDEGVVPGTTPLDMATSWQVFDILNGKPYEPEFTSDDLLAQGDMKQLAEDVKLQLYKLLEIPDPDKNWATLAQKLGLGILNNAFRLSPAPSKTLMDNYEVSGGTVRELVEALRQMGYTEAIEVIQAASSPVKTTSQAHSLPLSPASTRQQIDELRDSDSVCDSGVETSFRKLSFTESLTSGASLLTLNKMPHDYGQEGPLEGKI
UniProt P25799: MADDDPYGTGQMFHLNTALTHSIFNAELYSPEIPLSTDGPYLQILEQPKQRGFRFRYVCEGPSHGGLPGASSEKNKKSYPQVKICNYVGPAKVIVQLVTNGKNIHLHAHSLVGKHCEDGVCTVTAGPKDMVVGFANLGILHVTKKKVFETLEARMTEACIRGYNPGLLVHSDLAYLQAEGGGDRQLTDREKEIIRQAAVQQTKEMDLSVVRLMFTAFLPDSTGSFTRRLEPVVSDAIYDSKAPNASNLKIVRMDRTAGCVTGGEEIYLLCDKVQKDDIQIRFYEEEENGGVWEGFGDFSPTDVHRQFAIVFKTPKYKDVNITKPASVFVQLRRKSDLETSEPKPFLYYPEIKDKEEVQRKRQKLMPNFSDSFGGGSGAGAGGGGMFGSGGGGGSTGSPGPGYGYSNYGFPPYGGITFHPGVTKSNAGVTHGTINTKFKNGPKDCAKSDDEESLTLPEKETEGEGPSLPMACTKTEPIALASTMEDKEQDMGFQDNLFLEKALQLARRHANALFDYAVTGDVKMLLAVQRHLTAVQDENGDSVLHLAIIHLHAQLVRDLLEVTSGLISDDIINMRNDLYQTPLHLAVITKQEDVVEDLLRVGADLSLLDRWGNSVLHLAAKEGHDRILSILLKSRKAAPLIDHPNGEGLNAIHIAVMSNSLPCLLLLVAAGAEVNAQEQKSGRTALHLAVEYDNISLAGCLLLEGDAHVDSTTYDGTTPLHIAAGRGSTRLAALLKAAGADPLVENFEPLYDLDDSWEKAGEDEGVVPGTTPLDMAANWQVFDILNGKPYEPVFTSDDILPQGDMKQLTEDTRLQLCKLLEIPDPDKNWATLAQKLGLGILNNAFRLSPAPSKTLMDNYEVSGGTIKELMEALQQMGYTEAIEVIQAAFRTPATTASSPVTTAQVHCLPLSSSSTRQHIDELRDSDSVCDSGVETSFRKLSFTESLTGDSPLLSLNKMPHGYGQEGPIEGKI

What was measured:
Flag-tagged integrin β1 = Flag-tagged integrin β1 (UniProt P05556); assay: co-IP; HEK293 cells cotransfected for 24 h with Flag-integrin β1 and His-NF-κB p105 or His-NF-κB p55; RIPA lysate, Protein A-agarose, overnight at 4 °C
[1] = target: integrin β1 (mouse (endogenous in liver tissue and primary hepatocytes)) (UniProt P09055); assay: co-IP; mouse liver tissue lysed in RIPA buffer; 500 µg sample with 2 µg anti-integrin β1 antibody and Protein A-agarose overnight at 4 °C; blot with an NF-κB p105 antibody that binds the C-terminus; livers of wild-type, Sema7a^R145W homozygous and DEN/CCl4 hepatocellular carcinoma mice

Substance	binding (Flag-tagged integrin β1)	binding [1]
His-tagged NF-κB p105 (from UniProt P19838 1-968)	binds	–
NF-κB p50 (from UniProt P25799 1-431)	–	no binding
nuclear factor NF-kappa-B p105 (from UniProt P25799-1 1-971)	–	binds
